Assay results as given in PubChem BioAssay AID248 (DTP/NCI, 2004).
The list is a part of this screen's results and no random one: it is rich in T/C values a quarter to a half above the control, in often repeated tests (any T/C) and in doses without a T/C. Further doses and runs are listed elsewhere. T/C is the treated group as % of the vehicle group. Some entries give survivors of the animals treated and no T/C: the source holds a T/C of zero for them, seemingly a mark for toxic or unscored doses. Some survivor counts are full or nearly so, which does not show that the dose was tolerated: the source hardly ever lists a survival T/C far under the control, and the zero likely stands for such cases as well. Counts of survivors are from the toxicity check (mostly the fifth day) where no day follows; animals may have died later. Schedules are NCI's codes, taken here to give the interval after Q, in days (D) or hours (H), and the number of doses after X. Some entries hold several experiments; the values are given in rising order. Where survival is the endpoint, the PubChem record calls one and a half times the control and up active, and a quarter to a half above the control has no call in these data; cut-offs in other NCI protocols can differ. Marks such as (2×) say how often a value occurs here. Some schedules carry Z or #; the key to these is not given. Some T/C values are followed by the survivors on the day toxicity was checked, most often the fifth; without a count, all were alive then.

Tested on: L1210 leukemia ip in BDF1 mice, survival T/C
Assay: NCI In Vivo Anticancer Drug Screen. Data for tumor model L1210 Leukemia (intraperitoneal) in B6D2F1 (BDF1) mice
Settings: T/C endpoint: mean survival time, higher T/C = longer survival
[1] = dose: 200.0 mg/kg/injection, schedule: Q04DX003 (ip), vehicle: saline
[2] = dose: 400.0 mg/kg/injection, schedule: Q04DX003 (ip), vehicle: saline
[3] = dose: 400.0 mg/kg/injection, schedule: Q01DX001 (ip), vehicle: saline
[4] = dose: 200.0 mg/kg/injection, schedule: Q01DX009 (ip), vehicle: Klucel (hydroxypropylcellulose) (HPC)
[5] = dose: 400.0 mg/kg/injection, schedule: Q04DX003 (ip), vehicle: Klucel (hydroxypropylcellulose) (HPC)
[6] = dose: 200.0 mg/kg/injection, schedule: Q04DX002 (ip), vehicle: Klucel (hydroxypropylcellulose) (HPC)
[7] = dose: 400.0 mg/kg/injection, schedule: Q04DX002 (ip), vehicle: Klucel (hydroxypropylcellulose) (HPC)
[8] = dose: 100.0 mg/kg/injection, schedule: Q01DX009 (ip), vehicle: saline
[9] = dose: 100.0 mg/kg/injection, schedule: Q01DX001 (ip), vehicle: saline
[10] = dose: 200.0 mg/kg/injection, schedule: Q01DX001 (ip), vehicle: saline
[11] = dose: 400.0 mg/kg/injection, schedule: Q01DX009 (ip), vehicle: Klucel (hydroxypropylcellulose) (HPC)
[12] = dose: 200.0 mg/kg/injection, schedule: Q01DX009 (ip), vehicle: saline
[13] = dose: 200.0 mg/kg/injection, schedule: Q04DX002 (ip), vehicle: DMSO
[14] = dose: 400.0 mg/kg/injection, schedule: Q04DX002 (ip), vehicle: saline with Tween-80

C#CCOC1CCCCO1 (configuration not stated)
survivor count (dose: 150.0 mg/kg/injection, schedule: Q01DX009 (ip), vehicle: saline): 3 of 6
survivor count [1]: 3 of 6
survivor count (dose: 225.0 mg/kg/injection, schedule: Q01DX009 (ip), vehicle: saline): 1 of 6
survivor count (dose: 335.0 mg/kg/injection, schedule: Q01DX009 (ip), vehicle: saline): 0 of 6
survivor count [2]: 0 of 6

C[C@]12CC[C@H](OC3OC(CO)C(O)C(O)C3O)C[C@H]1CC[C@@H]1[C@@H]2CC[C@]2(C)[C@@H](C3=CCOC3=O)CC[C@]12O (some centres not stated)
survivor count (dose: 4.0 mg/kg/injection, schedule: Q01DX010 (ip), vehicle: saline): 6 of 6
survivor count (dose: 32.0 mg/kg/injection, schedule: Q01DX001 (ip), vehicle: saline): 2 of 4

CCCC1(c2ccccc2)NC(=O)NC1=O (configuration not stated)
survivor count [3]: 2 of 4

Cc1cccc(N=P(c2ccccc2)(c2ccccc2)c2ccccc2)c1
survivor count [4]: 6 of 6
survivor count [5]: 4 of 6

c1cnc[c]([Hg][c]2cccnc2)c1
survivor count (dose: 100.0 mg/kg/injection, schedule: Q04DX002 (ip), vehicle: Klucel (hydroxypropylcellulose) (HPC)): 2 of 3
survivor count [6]: 0 of 3
survivor count [7]: 0 of 3

O=C(Nc1ccc(C2=NCCN2)cc1)c1cccc2c(C(=O)Nc3ccc(C4=NCCN4)cc3)cccc12
T/C (dose: 15.0 mg/kg/injection, schedule: Q01DX Z (ip), vehicle: carboxymethylcellulose (CMC)): 130 % of control
T/C (dose: 33.0 mg/kg/injection, schedule: Q01DX Z (ip), vehicle: carboxymethylcellulose (CMC)): 127 % of control

CC12CCC(C1)C(C)(C)C2NCCCN1C(=O)c2ccc3c4c(ccc(c24)C1=O)C(=O)N(CCCNC1C2(C)CCC(C2)C1(C)C)C3=O (configuration not stated)
survivor count [8]: 6 of 6
survivor count [1]: 6 of 6
survivor count [2]: 6 of 6

O=C(CC(=O)c1ccccc1)Nc1ccc([N+](=O)[O-])cn1
survivor count (dose: 100.0 mg/kg/injection, schedule: Q04DX003 (ip), vehicle: Klucel (hydroxypropylcellulose) (HPC)): 6 of 6

Cc1cc(O)c(C(C)C)cc1N(C)C (tested in a mixture with another compound)
survivor count [9]: 0 of 6
survivor count [10]: 0 of 6
survivor count [3]: 0 of 6

CCCCNC(=O)C1C2CC3OC(=O)C1C3C2 (configuration not stated)
survivor count (dose: 100.0 mg/kg/injection, schedule: Q04DX003 (ip), vehicle: saline): 3 of 4
survivor count [1]: 0 of 4
survivor count [2]: 0 of 4

CN1CC(=O)n2c(cc3ccccc32)C1=O
T/C (dose: 200.0 mg/kg/injection, schedule: Q04DX002 (ip), vehicle: saline): 125 % of control

CN(C)NCCOC(c1ccccc1)c1ccccc1
survivor count [6]: 2 of 3
survivor count [7]: 0 of 3

CC1(C)N=C(N)N=C(N)N1c1cccc(OCCCOc2cccc([N+](=O)[O-])c2)c1
survivor count [9]: 1 of 6
survivor count [10]: 0 of 6
survivor count [3]: 0 of 6

O=NN(Cc1ccccc1)NC(=O)c1ccccc1
survivor count (dose: 400.0 mg/kg/injection, schedule: Q04DX002 (ip), vehicle: gum acacia): 1 of 3

C=CCNC(=S)Nc1cc(Cl)ccc1C
survivor count [11]: 0 of 6

CC(=C(C#N)C#N)c1ccccc1
survivor count (dose: 100.0 mg/kg/injection, schedule: Q04DX003 (ip), vehicle: saline with Tween-80): 6 of 6
survivor count (dose: 200.0 mg/kg/injection, schedule: Q04DX003 (ip), vehicle: saline with Tween-80): 0 of 6
survivor count (dose: 400.0 mg/kg/injection, schedule: Q04DX003 (ip), vehicle: saline with Tween-80): 0 of 6

COc1cc2c(cc1OC)CC[N+](C)=C2
survivor count [12]: 0 of 6
survivor count [1]: 2 of 6
survivor count [2]: 0 of 6

CCOc1cc(OCC)c(OCC)cc1C=C(C#N)C#N
survivor count [4]: 6 of 6

CC(C)NNC(=O)c1cccnc1
T/C [8]: 97 (2×) and 100 % of control
survivor count [8]: 5 of 6
survivor count [12]: 2 of 3
survivor count (dose: 400.0 mg/kg/injection, schedule: Q01DX009 (ip), vehicle: saline): 0 of 3 and 0 of 6

Clc1ccccc1/C=C/c1ccccn1
survivor count (dose: 50.0 mg/kg/injection, schedule: Q04DX002 (ip), vehicle: DMSO): 3 of 3
survivor count (dose: 100.0 mg/kg/injection, schedule: Q04DX002 (ip), vehicle: DMSO): 2 of 3
T/C [13]: 125 % of control [2 of 3 alive]
survivor count [13]: 2 of 3
survivor count (dose: 400.0 mg/kg/injection, schedule: Q04DX002 (ip), vehicle: DMSO): 0 of 3 and 1 of 3

CC(C)(C)OC(=O)C(CC(=O)O)NC(=O)OCc1ccccc1 (configuration not stated) (tested in a mixture with another compound)
survivor count [1]: 3 of 6
survivor count [2]: 0 of 6

CCCCCCCCNC(C)=O
survivor count (dose: 100.0 mg/kg/injection, schedule: Q01DX009 (ip), vehicle: saline with Tween-80): 0 of 6
survivor count (dose: 200.0 mg/kg/injection, schedule: Q01DX009 (ip), vehicle: saline with Tween-80): 0 of 6
survivor count (dose: 400.0 mg/kg/injection, schedule: Q01DX009 (ip), vehicle: saline with Tween-80): 0 of 6

O=C(C[P+](c1ccccc1)(c1ccccc1)c1ccccc1)Nc1ccccc1
survivor count (dose: 150.0 mg/kg/injection, schedule: Q01DX009 (ip), vehicle: Klucel (hydroxypropylcellulose) (HPC)): 0 of 6
survivor count (dose: 300.0 mg/kg/injection, schedule: Q01DX009 (ip), vehicle: Klucel (hydroxypropylcellulose) (HPC)): 0 of 6

CN(CC(O)COc1ccccc1)CC1CCCO1 (configuration not stated)
survivor count (dose: 200.0 mg/kg/injection, schedule: Q04DX003 (ip), vehicle: Klucel (hydroxypropylcellulose) (HPC)): 2 of 6
survivor count [5]: 0 of 6

O=C1CCc2ccsc21
survivor count [14]: 3 of 3

Nc1nc(N)c(-c2ccc(Cl)c(Cl)c2)c(CCc2ccc(S(=O)(=O)F)cc2)n1
survivor count [11]: 4 of 6

CC/C=C(\C)C1(CC)C(=O)NC(=O)NC1=O
survivor count (dose: 300.0 mg/kg/injection, schedule: Q01DX001 (ip), vehicle: saline): 3 of 6

NC1=NC(Cc2ccccc2)N(c2ccc(Cl)cc2)C(N)=N1 (configuration not stated)
survivor count (dose: 200.0 mg/kg/injection, schedule: Q01DX001 (ip), vehicle: steroid suspending solution): 1 of 6
survivor count (dose: 400.0 mg/kg/injection, schedule: Q01DX001 (ip), vehicle: steroid suspending solution): 0 of 6

[O-][n+]1ccc(CCc2ccccc2)cc1
survivor count [14]: 0 of 3

CCN=C(c1ccc(NC(=O)c2ccc(C(=O)Nc3ccc(C(=NCC)N(CC)C(=O)NC)cc3)cc2)cc1)N(CC)C(=O)NC
survivor count (dose: 25.0 mg/kg/injection, schedule: Q01DX015 (ip), vehicle: methylcellulose (MC)): 1 of 6
survivor count (dose: 50.0 mg/kg/injection, schedule: Q01DX015 (ip), vehicle: methylcellulose (MC)): 0 of 6

CCC(C)(NC(N)=O)c1ccccc1 (configuration not stated)
survivor count [3]: 0 of 6
